Assay results from patent US5225411A, “Disubstituted polymethyleneimines” (priority 1990, dated 1993).

Test system: Chinese Hamster Pulmonary Line DC-3F/AD
Assay: Increase in the cytotoxicity of actinomycin D on the Chinese hamster pulmonary line DC-3F/AD;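 note: DC-3F/AD is an extremely resistant cell line whose resistance factor exceeds 10,000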
Assay type: cell-based
Conditions: 4 days

## COC(=O)C1=C(C)NC(C)=C(C(=O)OC)C1c1ccccc1[N+](=O)[O-] [NIFEDIPINE]
Compound 5 μM
  Reversion Factor (RF): < 11
Compound 10 μM
  Reversion Factor (RF): TOX
Compound 20 μM
  Reversion Factor (RF): TOX
